The source of these data is article PMC12541374.

For at least one entry, the source does not settle the construct or the ends of the probe.

The data set has as its system PtoHB1 (Populus tomentosa). In words: EMSA. To be noted: 100 ng protein; EMSA with 100 ng protein, biotin-labeled probes (Beyotime kit), 50x and 100x unlabeled competitor; pH and temperature not stated (as in Fang et al. 2023); recombinant protein; protein details: His (pET32a fusion, Ni-NTA purified); label: biotin. On the technique in general: In EMSA bound probe runs differently from free probe, usually more slowly.

With “TATTACAATAATTGA (double strand) [12bp-ins-Probe (PtoIRKIhap2 promoter)]”, the binding result was “binds”.
